These are yes or no findings as the source states them, for the method shown. Binding seen in cells or lysates may run through a third protein. Some binding calls cover weakened binding; strength is not graded here.
Target: T1, vascular endothelial (VE)-cadherin (human (endogenous in BLM, A375, MDA-MB-468, SKBR3)) (UniProt P33151)
T1 sequence: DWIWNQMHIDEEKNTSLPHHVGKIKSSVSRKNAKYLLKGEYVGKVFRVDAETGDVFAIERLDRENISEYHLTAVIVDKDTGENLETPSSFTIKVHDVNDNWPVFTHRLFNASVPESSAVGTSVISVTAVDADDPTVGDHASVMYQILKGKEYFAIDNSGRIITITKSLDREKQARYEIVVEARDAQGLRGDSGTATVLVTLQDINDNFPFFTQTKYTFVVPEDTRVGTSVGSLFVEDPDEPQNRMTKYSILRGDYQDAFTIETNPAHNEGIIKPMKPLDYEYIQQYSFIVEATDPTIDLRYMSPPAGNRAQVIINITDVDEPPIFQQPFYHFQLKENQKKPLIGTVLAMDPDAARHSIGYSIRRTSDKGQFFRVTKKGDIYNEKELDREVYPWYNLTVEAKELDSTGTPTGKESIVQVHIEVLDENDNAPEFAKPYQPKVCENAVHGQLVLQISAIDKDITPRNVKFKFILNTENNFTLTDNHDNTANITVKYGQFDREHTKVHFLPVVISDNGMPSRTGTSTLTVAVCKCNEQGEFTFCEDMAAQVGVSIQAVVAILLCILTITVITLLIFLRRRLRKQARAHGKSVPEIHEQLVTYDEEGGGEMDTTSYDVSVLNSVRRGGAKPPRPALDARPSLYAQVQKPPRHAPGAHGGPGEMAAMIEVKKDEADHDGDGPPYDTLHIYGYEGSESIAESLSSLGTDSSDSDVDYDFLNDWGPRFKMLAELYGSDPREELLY
Assay: co-IP; 500 μg of lysate (1% Igepal, 100 mM NaCl, 2 mM MgCl2, 10% glycerol, 50 mM Tris-HCl) of BLM and MDA-MB-468 cells (Figure 3b also A375 and SKBR3), immunoprecipitated with anti-VE-cadherin, anti-α2 integrin, anti-αv integrin or control antibodies and protein G sepharose; western blot; also after siRNA against α2 or αv integrin

Sequences of proteins named here, by UniProt entry; tags and fusion partners are left off. A change or cut given only in a name is not applied to a line headed by its entry.
UniProt P17301: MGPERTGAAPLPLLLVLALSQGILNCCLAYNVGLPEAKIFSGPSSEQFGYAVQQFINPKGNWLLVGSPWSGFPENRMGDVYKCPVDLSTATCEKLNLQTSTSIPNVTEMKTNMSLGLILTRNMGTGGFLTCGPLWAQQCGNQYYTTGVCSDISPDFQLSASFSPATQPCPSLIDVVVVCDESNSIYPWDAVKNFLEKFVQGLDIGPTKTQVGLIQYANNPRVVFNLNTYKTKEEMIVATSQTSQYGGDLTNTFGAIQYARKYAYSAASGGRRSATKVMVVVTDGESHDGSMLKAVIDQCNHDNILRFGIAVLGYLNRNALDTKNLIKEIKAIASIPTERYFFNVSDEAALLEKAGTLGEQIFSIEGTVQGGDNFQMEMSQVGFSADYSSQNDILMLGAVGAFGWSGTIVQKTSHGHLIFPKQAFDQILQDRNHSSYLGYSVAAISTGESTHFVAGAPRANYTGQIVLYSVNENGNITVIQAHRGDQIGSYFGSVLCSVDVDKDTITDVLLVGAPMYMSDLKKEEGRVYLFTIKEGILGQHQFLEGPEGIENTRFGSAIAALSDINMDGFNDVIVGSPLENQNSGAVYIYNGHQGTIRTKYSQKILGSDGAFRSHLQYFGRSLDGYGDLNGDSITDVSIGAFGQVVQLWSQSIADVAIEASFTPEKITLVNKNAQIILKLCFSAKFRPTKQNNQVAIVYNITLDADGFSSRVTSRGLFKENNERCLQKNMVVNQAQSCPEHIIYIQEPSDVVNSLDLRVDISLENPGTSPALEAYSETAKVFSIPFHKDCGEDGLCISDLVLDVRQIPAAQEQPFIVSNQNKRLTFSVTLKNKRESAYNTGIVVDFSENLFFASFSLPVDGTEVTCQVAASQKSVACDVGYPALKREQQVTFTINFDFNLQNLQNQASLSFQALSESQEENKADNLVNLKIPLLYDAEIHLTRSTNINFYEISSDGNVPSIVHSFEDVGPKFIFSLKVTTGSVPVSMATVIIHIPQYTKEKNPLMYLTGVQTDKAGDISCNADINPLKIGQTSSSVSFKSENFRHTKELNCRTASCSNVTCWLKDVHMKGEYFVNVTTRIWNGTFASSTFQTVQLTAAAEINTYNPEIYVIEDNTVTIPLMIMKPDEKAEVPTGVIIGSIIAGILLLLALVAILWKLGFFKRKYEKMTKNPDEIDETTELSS

binding: binds
Substance: α2β1 integrin (from UniProt P17301 30-1181; P05556 21-798) (complex)

Source: paper PMC5352113
